# Results reported in article PMC9642995.
# Chains of the proteins cited; added tags and fusions are not shown.
# UniProt P23242: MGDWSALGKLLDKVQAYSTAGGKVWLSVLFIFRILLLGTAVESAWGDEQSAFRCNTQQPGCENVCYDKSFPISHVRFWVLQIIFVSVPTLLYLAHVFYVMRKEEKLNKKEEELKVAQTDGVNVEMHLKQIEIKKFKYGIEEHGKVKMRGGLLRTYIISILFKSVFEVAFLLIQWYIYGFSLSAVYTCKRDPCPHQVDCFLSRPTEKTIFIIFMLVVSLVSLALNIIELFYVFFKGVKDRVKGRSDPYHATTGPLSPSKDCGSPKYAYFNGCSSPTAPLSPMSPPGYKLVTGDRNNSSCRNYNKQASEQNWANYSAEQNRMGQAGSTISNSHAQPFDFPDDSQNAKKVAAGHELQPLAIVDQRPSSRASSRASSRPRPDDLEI
# Results are given in words; binding and its absence hold for the method and conditions named. In cells and extracts the contact can be indirect. Some results given as binding are weak or reduced against the parent protein; the word gives no strength. Sequences can lack the tags named with a protein.
# How the values were obtained:
# ATP5J2-GFP = molecular target: T1, ATP5J2-GFP (UniProt P56135); experiment: co-IP; GFP or ATP5J2-GFP transfected MLO-Y4 cells; immunoprecipitation with anti-GFP antibody, blot with anti-Cx43 (1:300)
# T1 sequence: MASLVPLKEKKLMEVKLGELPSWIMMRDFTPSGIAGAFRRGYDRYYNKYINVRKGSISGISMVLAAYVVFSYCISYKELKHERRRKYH
# [1] = molecular target: T2, ATP5J2-enhanced yellow fluorescent protein (EYFP) (UniProt P56135); experiment: FRET or BRET; Cx43-CFP (donor) and ATP5J2-EYFP (acceptor) co-transfected into MLO-Y4 cells, 48 hr, confocal microscopy, FRET index by the ImageJ FRET analysis plugin
# T2 sequence: T1 sequence
Substance,binding (ATP5J2-GFP),binding [1]
Connexin 43 (Cx43) (from UniProt P23242 1-382),binds,–
Cx43-cyan fluorescent protein (CFP) (from UniProt P23242 1-382),–,binds
